{"source": "PubChem BioAssay AID1259300 (Sanger Institute, 2017)", "test": "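Kinase and colorectal-mutated gene knock-downs lowering HCT15 viability or boosting drug effects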 (primary screen)", "system": "HCT15 colorectal cancer cells", "reagents": "siRNA pool against human genes", "conditions": "anchor drug or DMSO vehicle added 24 h after seeding: BYL719 1 µM, cetuximab 5 µg/ml, trametinib 10 nM; drug doses chosen to barely affect viability alone", "read-out": "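Replicate-mean viability relative to non-targeting pool control with robust z-score for knock-down without drug; per-drug synergy scores for BYL719 (1 µM), cetuximab (5 µg/ml), trametinib (10 nM)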", "scale": "viability z-score, siRNA alone: higher = more viable cells after knock-down; viability vs non-targeting, siRNA alone: higher = more viable cells", "active means": "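a knock-down without drug that drives the robust viability z-score under -3 is active, i.e. essential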", "calls": "active = essential: knock-down alone lowers viability (z below -3); inactive = no strong viability loss with knock-down alone", "note": "In all, the deposit lists 794 reagents; this is a random part of them. 18 of all reagents (2.3%) were called active. 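Calls rest on knock-down alone, not drug synergy; depositor treated synergy scores above 0.15 as synergistic; drug doses alone had little viability effect.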 Viability is capped at 1. Not all columns of the deposit are shown. No sequences are given here. Not given: the amount of reagent, the time to read-out."}
{"gene":"PHKA1","viability z-score, siRNA alone":-0.297,"viability vs non-targeting, siRNA alone":0.933,"Call":"inactive"}
{"gene":"MECOM","viability z-score, siRNA alone":0.297,"viability vs non-targeting, siRNA alone":0.976,"Call":"inactive"}
{"gene":"MAP3K11","viability z-score, siRNA alone":0.0568,"viability vs non-targeting, siRNA alone":0.959,"Call":"inactive"}
{"gene":"TAF1","viability z-score, siRNA alone":0.111,"viability vs non-targeting, siRNA alone":0.963,"Call":"inactive"}
{"gene":"SHPK","viability z-score, siRNA alone":-0.414,"viability vs non-targeting, siRNA alone":0.924,"Call":"inactive"}
{"gene":"PRKAG2","viability z-score, siRNA alone":0.564,"viability vs non-targeting, siRNA alone":0.996,"Call":"inactive"}
{"gene":"DYRK3","viability z-score, siRNA alone":0.625,"viability vs non-targeting, siRNA alone":1,"Call":"inactive"}
{"gene":"RIPK1","viability z-score, siRNA alone":0.614,"viability vs non-targeting, siRNA alone":0.999,"Call":"inactive"}
{"gene":"SPHK1","viability z-score, siRNA alone":0.625,"viability vs non-targeting, siRNA alone":1,"Call":"inactive"}
{"gene":"STK39","viability z-score, siRNA alone":0.625,"viability vs non-targeting, siRNA alone":1,"Call":"inactive"}
{"gene":"CLK4","viability z-score, siRNA alone":0.467,"viability vs non-targeting, siRNA alone":0.989,"Call":"inactive"}

2 of these entries, set out differently:
gene,"viability z-score, siRNA alone","viability vs non-targeting, siRNA alone",Call
PRKAG2,0.564,0.996,inactive
DYRK3,0.625,1,inactive

The list goes on.
{"gene":"RIOK1","viability z-score, siRNA alone":-0.388,"viability vs non-targeting, siRNA alone":0.926,"Call":"inactive"}
{"gene":"EPHB4","viability z-score, siRNA alone":-0.847,"viability vs non-targeting, siRNA alone":0.893,"Call":"inactive"}
{"gene":"PTK6","viability z-score, siRNA alone":0.625,"viability vs non-targeting, siRNA alone":1,"Call":"inactive"}
{"gene":"IP6K1","viability z-score, siRNA alone":0.625,"viability vs non-targeting, siRNA alone":1,"Call":"inactive"}
{"gene":"CDK5R1","viability z-score, siRNA alone":-1.22,"viability vs non-targeting, siRNA alone":0.866,"Call":"inactive"}
{"gene":"MAP2K5","viability z-score, siRNA alone":0.625,"viability vs non-targeting, siRNA alone":1,"Call":"inactive"}
{"gene":"TSSK3","viability z-score, siRNA alone":-0.401,"viability vs non-targeting, siRNA alone":0.925,"Call":"inactive"}
{"gene":"ETNK1","viability z-score, siRNA alone":0.625,"viability vs non-targeting, siRNA alone":1,"Call":"inactive"}
